{"sequences": {"note": "The chains behind the UniProt entries cited, without tags or fusion partners.", "UniProt P18272": "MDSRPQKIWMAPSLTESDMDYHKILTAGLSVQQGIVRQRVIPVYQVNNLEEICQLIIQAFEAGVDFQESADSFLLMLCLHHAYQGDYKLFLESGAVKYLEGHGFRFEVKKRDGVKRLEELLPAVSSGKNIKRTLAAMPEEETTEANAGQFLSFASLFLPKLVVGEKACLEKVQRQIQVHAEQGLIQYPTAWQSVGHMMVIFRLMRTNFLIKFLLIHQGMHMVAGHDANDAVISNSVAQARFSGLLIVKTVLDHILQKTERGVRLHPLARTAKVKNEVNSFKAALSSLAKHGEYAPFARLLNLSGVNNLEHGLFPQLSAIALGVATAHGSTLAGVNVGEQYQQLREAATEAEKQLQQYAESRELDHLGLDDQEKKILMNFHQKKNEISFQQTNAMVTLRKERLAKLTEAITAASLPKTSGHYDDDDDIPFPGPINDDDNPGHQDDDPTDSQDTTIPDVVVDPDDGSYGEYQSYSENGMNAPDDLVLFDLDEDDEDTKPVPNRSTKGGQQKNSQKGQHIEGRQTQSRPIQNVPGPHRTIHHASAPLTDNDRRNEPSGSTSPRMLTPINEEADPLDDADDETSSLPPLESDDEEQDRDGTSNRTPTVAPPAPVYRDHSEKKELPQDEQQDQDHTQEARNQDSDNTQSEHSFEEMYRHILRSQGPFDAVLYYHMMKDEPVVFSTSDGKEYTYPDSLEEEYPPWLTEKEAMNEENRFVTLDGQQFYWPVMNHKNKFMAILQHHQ", "UniProt Q05128": "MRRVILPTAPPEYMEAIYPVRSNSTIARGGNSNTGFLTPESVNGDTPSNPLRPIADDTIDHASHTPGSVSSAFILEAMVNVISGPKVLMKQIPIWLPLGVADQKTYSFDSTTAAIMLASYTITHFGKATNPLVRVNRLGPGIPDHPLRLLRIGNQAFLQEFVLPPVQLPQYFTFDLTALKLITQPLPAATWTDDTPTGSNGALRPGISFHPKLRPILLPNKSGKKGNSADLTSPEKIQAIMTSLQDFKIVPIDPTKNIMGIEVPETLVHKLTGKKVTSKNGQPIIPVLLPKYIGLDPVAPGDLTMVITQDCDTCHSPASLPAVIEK", "UniProt Q05323": "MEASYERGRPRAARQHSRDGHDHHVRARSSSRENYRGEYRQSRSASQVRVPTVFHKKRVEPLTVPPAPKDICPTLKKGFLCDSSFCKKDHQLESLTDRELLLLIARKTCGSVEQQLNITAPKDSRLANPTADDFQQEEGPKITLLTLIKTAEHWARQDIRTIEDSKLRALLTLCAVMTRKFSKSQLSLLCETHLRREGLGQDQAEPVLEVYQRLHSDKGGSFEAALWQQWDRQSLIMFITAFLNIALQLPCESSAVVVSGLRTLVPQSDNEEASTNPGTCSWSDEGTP"}, "source": "paper PMC7017048", "note": "No constants are given. Whether binding was seen depends on the method and setting. In cells and extracts the contact can be indirect. Some results given as binding are weak or reduced against the parent protein; the word gives no strength. Sequences can lack the tags named with a protein.", "data": [{"molecular_target": "T1, flag/HA-tagged nuclear RNA export factor 1 (NXF1), wildtype (UniProt Q9UBU9)", "T1 sequence": "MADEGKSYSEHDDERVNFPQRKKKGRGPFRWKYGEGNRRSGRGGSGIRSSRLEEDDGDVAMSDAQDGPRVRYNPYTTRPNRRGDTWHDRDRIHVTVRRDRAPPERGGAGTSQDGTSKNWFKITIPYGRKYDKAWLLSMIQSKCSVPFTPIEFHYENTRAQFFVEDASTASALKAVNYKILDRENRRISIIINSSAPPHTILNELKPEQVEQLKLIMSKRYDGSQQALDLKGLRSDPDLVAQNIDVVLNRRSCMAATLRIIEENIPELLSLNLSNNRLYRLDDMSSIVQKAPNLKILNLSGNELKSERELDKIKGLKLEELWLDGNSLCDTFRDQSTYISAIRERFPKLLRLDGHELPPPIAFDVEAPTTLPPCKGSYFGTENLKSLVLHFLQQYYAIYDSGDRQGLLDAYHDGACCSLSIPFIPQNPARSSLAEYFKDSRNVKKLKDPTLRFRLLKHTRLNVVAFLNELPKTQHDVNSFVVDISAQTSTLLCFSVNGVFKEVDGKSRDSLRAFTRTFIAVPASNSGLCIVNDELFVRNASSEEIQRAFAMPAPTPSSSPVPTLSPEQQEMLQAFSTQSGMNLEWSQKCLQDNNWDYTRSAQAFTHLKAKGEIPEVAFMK", "assay": "co-IP", "values": [{"substance": "Ebola virus (EBOV) nucleoprotein (NP) (from UniProt P18272 1-739)", "binding": "binds"}, {"substance": "Ebola virus matrix protein VP40 (from UniProt Q05128 1-326)", "binding": "no binding"}, {"substance": "Ebola virus transcriptional activator viral protein 30 (VP30) (from UniProt Q05323 1-288)", "binding": "no binding"}]}]}
